Source: PubChem BioAssay AID1159578 (Peter MacCallum Cancer Centre, 2015)

Screen: 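Genome-wide hunt for genes controlling movement of lymphatic endothelial cells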 (primary screen)
System: human lymphatic endothelial cells
Knock-down reagent: siRNA pool against human genes, 40 nM
Duration: 48 h after transfection
Detection: 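High-content imaging of dye-stained cells in a scratch assay measures filled wound area and nuclei per well; duplicate means given as ratio to mock and robust z-score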
Reading the numbers: migration robust z-score: higher = faster migration into the scratch; migration relative to mock: higher = more scratch area covered than mock; nuclei per well: higher = more cells in the well
Hit rule: 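Migration changed when robust z exceeds 2 or falls below -2 and mean nuclei number is at least 3300; otherwise not called changed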
Calls: active = migration changed; inactive = no migration change, or too few cells
The deposit covers about 18,000 reagents; shown is an unselected part. About 1,030 of them (5.7%) were called active. 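Inactive calls also include pools with fewer than 3300 nuclei, whose migration was not assessed.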 Raw values are not corrected between plates.

| gene | migration robust z-score | migration class with cell-count check | migration relative to mock | nuclei per well, duplicate mean | activity call |
| --- | --- | --- | --- | --- | --- |
| NEDD4 | 1.19 | migration z between -2 and 2; enough cells | 1.03 | 5343 | inactive |
| SFRP4 | 0.96 | migration z between -2 and 2; enough cells | 0.99 | 6418 | inactive |
| DPP4 | 0.57 | migration z between -2 and 2; enough cells | 0.92 | 6945 | inactive |
| ETNK1 | -0.52 | migration z between -2 and 2; enough cells | 0.7 | 7384 | inactive |
| ZNF8 | 1.47 | migration z between -2 and 2; enough cells | 1.27 | 5078 | inactive |
| PPFIA2 | 2.08 | migration z above 2; enough cells | 1.21 | 3865 | active |
| PROX2 | -0.56 | migration z between -2 and 2; enough cells | 0.74 | 6506 | inactive |
| EFCAB7 | 0.92 | migration z between -2 and 2; enough cells | 1.12 | 5510 | inactive |
| ZMAT5 | -0.05 | migration z between -2 and 2; enough cells | 0.87 | 5707 | inactive |
| ZNF764 | 0.9 | migration z between -2 and 2; enough cells | 1.12 | 4923 | inactive |
| ITGAV | 1.58 | migration z between -2 and 2; enough cells | 1.11 | 5056 | inactive |
| TRIM63 | -0.28 | migration z between -2 and 2; enough cells | 0.75 | 5336 | inactive |
| GABRA1 | 1.53 | migration z between -2 and 2; enough cells | 1.1 | 5896 | inactive |
| ZNF680 | -0.56 | migration z between -2 and 2; enough cells | 0.74 | 5564 | inactive |
| OAS3 | 1.29 | migration z between -2 and 2; enough cells | 1.06 | 3549 | inactive |
| LCP1 | -0.44 | migration z between -2 and 2; enough cells | 0.77 | 5799 | inactive |
| PCTP | 0.76 | migration z between -2 and 2; enough cells | 1.08 | 5719 | inactive |
| PRKAR1B | -0.57 | migration z between -2 and 2; enough cells | 0.7 | 4827 | inactive |
| METAP1 | 1.01 | migration z between -2 and 2; enough cells | 1 | 5456 | inactive |
| SLC25A21 | -0.56 | migration z between -2 and 2; enough cells | 0.74 | 5784 | inactive |
| RIMS2 | -0.48 | migration z between -2 and 2; enough cells | 0.76 | 4431 | inactive |
| ATP6V0C | -1.07 | migration z between -2 and 2; enough cells | 0.6 | 5950 | inactive |
| DDX46 | -1.64 | migration z between -2 and 2; enough cells | 0.49 | 4844 | inactive |
| CXCL1 | -0.89 | migration z between -2 and 2; enough cells | 0.66 | 4310 | inactive |
| UST | -0.88 | migration z between -2 and 2; enough cells | 0.64 | 5007 | inactive |
| RPS4X | -1.1 | migration z between -2 and 2; enough cells | 0.6 | 5096 | inactive |
| OR10W1 | -0.9 | migration z between -2 and 2; enough cells | 0.65 | 5520 | inactive |
| EFCC1 | 1.4 | migration z between -2 and 2; enough cells | 1.25 | 4935 | inactive |
| EGR1 | -2.05 | migration z below -2; enough cells | 0.41 | 4465 | active |
| NT5C1A | -1.34 | migration z between -2 and 2; enough cells | 0.54 | 5558 | inactive |
| FGFR4 | -2.28 | under 3300 nuclei; migration not judged | 0.36 | 3145 | inactive |
| LUC7L3 | -1.36 | migration z between -2 and 2; enough cells | 0.53 | 5916 | inactive |
| MED11 | -0.65 | migration z between -2 and 2; enough cells | 0.72 | 6038 | inactive |
| MED29 | 0.7 | migration z between -2 and 2; enough cells | 1.07 | 7934 | inactive |
| ZNF234 | 1.13 | migration z between -2 and 2; enough cells | 1.18 | 6600 | inactive |
| CDKN2AIP | 1.02 | migration z between -2 and 2; enough cells | 1.15 | 6958 | inactive |
| TMEM126B | -0.52 | migration z between -2 and 2; enough cells | 0.76 | 5707 | inactive |

An excerpt from above, limited to “migration class with cell-count check”.
GABRA1	migration z between -2 and 2; enough cells
ZNF680	migration z between -2 and 2; enough cells
OAS3	migration z between -2 and 2; enough cells
LCP1	migration z between -2 and 2; enough cells
PCTP	migration z between -2 and 2; enough cells
PRKAR1B	migration z between -2 and 2; enough cells
METAP1	migration z between -2 and 2; enough cells
SLC25A21	migration z between -2 and 2; enough cells
RIMS2	migration z between -2 and 2; enough cells
ATP6V0C	migration z between -2 and 2; enough cells
DDX46	migration z between -2 and 2; enough cells
CXCL1	migration z between -2 and 2; enough cells

Next results:
| gene | migration robust z-score | migration class with cell-count check | migration relative to mock | nuclei per well, duplicate mean | activity call |
| --- | --- | --- | --- | --- | --- |
| SLC7A4 | 0.44 | migration z between -2 and 2; enough cells | 0.89 | 6136 | inactive |
| SFXN3 | 1.52 | migration z between -2 and 2; enough cells | 1.28 | 4632 | inactive |
| MTA1 | 0 | migration z between -2 and 2; enough cells | 0.8 | 5768 | inactive |
| SINHCAF | 0.42 | migration z between -2 and 2; enough cells | 0.99 | 5499 | inactive |
| PRSS35 | -2.36 | migration z below -2; enough cells | 0.35 | 5582 | active |
| USP9X | 0.98 | migration z between -2 and 2; enough cells | 1 | 6646 | inactive |
| EMD | 0.61 | migration z between -2 and 2; enough cells | 1.04 | 5301 | inactive |
| STXBP2 | 0.94 | migration z between -2 and 2; enough cells | 1.13 | 5720 | inactive |
| KCND2 | -1.04 | migration z between -2 and 2; enough cells | 0.6 | 5698 | inactive |
| AKNAD1 | 0.04 | migration z between -2 and 2; enough cells | 0.89 | 6283 | inactive |
| LNX1 | 0.47 | migration z between -2 and 2; enough cells | 0.9 | 6472 | inactive |
| SCML1 | 0.13 | migration z between -2 and 2; enough cells | 0.83 | 5890 | inactive |
| CHST5 | -3.11 | migration z below -2; enough cells | 0.2 | 4434 | active |
| NAIP | -0.18 | migration z between -2 and 2; enough cells | 0.77 | 5258 | inactive |
| ZRANB3 | 1.34 | migration z between -2 and 2; enough cells | 1.06 | 6579 | inactive |
| RALGAPB | -1.79 | migration z between -2 and 2; enough cells | 0.42 | 5376 | inactive |
| CNTF | 0.18 | migration z between -2 and 2; enough cells | 0.84 | 5852 | inactive |
| MTMR14 | -0.8 | migration z between -2 and 2; enough cells | 0.65 | 5124 | inactive |
| LRRC4 | 2.91 | migration z above 2; enough cells | 1.64 | 5784 | active |
| CPEB2 | 0.94 | migration z between -2 and 2; enough cells | 1.13 | 5640 | inactive |
| CD79A | -0.75 | migration z between -2 and 2; enough cells | 0.66 | 3540 | inactive |
| CASK | -2.99 | migration z below -2; enough cells | 0.23 | 4586 | active |
| NUP42 | -1.5 | migration z between -2 and 2; enough cells | 0.5 | 5267 | inactive |
| PNMT | -0.06 | migration z between -2 and 2; enough cells | 0.8 | 4280 | inactive |
| YPEL5 | -0.54 | migration z between -2 and 2; enough cells | 0.74 | 5530 | inactive |
| NFATC2IP | 2.93 | migration z above 2; enough cells | 1.64 | 7290 | active |
| STON1 | 0.19 | migration z between -2 and 2; enough cells | 0.94 | 6230 | inactive |
| EIF4E3 | 0.02 | migration z between -2 and 2; enough cells | 0.81 | 4885 | inactive |
| H2BC18 | 0.16 | migration z between -2 and 2; enough cells | 0.92 | 7284 | inactive |
| STK32B | 0.49 | migration z between -2 and 2; enough cells | 0.9 | 4022 | inactive |
| IMMP1L | -1.48 | migration z between -2 and 2; enough cells | 0.52 | 5243 | inactive |
| TARS3 | -0.02 | migration z between -2 and 2; enough cells | 0.8 | 5690 | inactive |
| SPIRE1 | -0.22 | migration z between -2 and 2; enough cells | 0.83 | 5564 | inactive |
| ACAD11 | -0.18 | migration z between -2 and 2; enough cells | 0.77 | 5978 | inactive |
| ZNF233 | -1.15 | migration z between -2 and 2; enough cells | 0.58 | 5762 | inactive |
| CCL14 | 1.2 | migration z between -2 and 2; enough cells | 1.04 | 5471 | inactive |
